Source: PubChem BioAssay AID652243 (Drosophila RNAi Screening Center, 2013)
Aim: 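Knock-downs that decrease or increase androgen receptor reporter signal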 (primary screen). Cell system: Drosophila S2R+ cells. Reagent: long dsRNA against Drosophila genes. Duration: 72 h (48 h, then 24 h hormone). Treatment: synthetic androgen R1881 at 10 nM for 24 h. Read-out: 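Per-well raw luminescence of the androgen-driven firefly reporter and of the Renilla control, two replicates each, without normalisation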. Direction: firefly reporter light: higher = more light from androgen-responsive reporter; Renilla control light: higher = more constitutive control signal (cell number, transfection). Rule for the call: 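Hit when the log firefly-to-Renilla ratio dropped or increased by a fixed fold versus the mean of GFP or LacZ controls across duplicate plates; lowering cut given as 1.5 and as 3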. Calls: active = hit: reporter lowered or raised; inactive = no hit.
The screen tested about 24,000 reagents; shown is a random part of those that have a named target and a result. Of all reagents, 246 (1%) are marked active. 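Plates not normalised; calls are printed but the firefly/Renilla ratio behind them is not deposited; fold cut for lowering reported inconsistently.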 Raw values vary from plate to plate and are shown uncorrected. Names joined by + are all predicted targets of the reagent. Reagent sequences are not shown. The record does not give: the amount of reagent.

"firefly reporter light, replicate 1","firefly reporter light, replicate 2","Renilla control light, replicate 1","Renilla control light, replicate 2",Call,target gene,DRSC id
1.89e5,2.35e5,1.93e6,2.51e6,inactive,CG7632,DRSC11842
7.86e5,6.19e5,1.44e6,8.97e5,inactive,Usp47 (Ubiquitin specific protease 47),DRSC11313
51511,39138,5.76e5,4.39e5,inactive,su(r) (suppressor of rudimentary),DRSC18705
1.79e5,1.23e5,8.35e5,6.96e5,inactive,CG7295,DRSC00699
2.83e5,3.20e5,3.15e6,2.60e6,inactive,CG11249,DRSC11645
,,,,inactive,CG11249,DRSC39272
,,,,inactive,CG11249,DRSC39273
2.05e5,2.46e5,1.48e6,1.66e6,inactive,Ssl (Suppressor of Stellate-like),DRSC04657
4.17e5,4.61e5,7.12e5,8.85e5,inactive,Ssl (Suppressor of Stellate-like),DRSC26276
1.48e6,1.21e6,1.70e6,1.72e6,inactive,Git (G protein-coupled receptor kinase interacting ArfGAP),DRSC06620
5.21e5,5.35e5,8.89e5,1.22e6,inactive,Git (G protein-coupled receptor kinase interacting ArfGAP),DRSC28567
77665,55323,1.79e6,1.96e6,inactive,Mst84Dd (Male-specific RNA 84Dd),DRSC12600
6.49e5,4.57e5,6.30e5,5.86e5,inactive,Mst84Dd (Male-specific RNA 84Dd),DRSC25596
2.60e5,2.04e5,2.64e6,1.24e6,inactive,eIF2beta (eukaryotic translation initiation factor 2 subunit beta),DRSC11341
6.70e5,5.61e5,1.84e6,1.38e6,inactive,eIF2beta (eukaryotic translation initiation factor 2 subunit beta),DRSC28025
2.65e5,3.23e5,1.68e6,1.98e6,active,Tbp (TATA binding protein),DRSC23111
2.50e5,1.51e5,6.73e5,6.15e5,inactive,CG31516,DRSC11994
7.68e5,1.05e6,2.18e6,2.30e6,inactive,Got2 (Glutamate oxaloacetate transaminase 2),DRSC00643
4.28e5,3.65e5,2.11e6,1.38e6,inactive,CG5569,DRSC04514
63439,73989,6.21e5,5.69e5,inactive,CG8064,DRSC16373
91145,1.59e5,7.44e5,6.80e5,inactive,Mipp2 (Multiple inositol polyphosphate phosphatase 2),DRSC18682
,,,,inactive,Mipp2 (Multiple inositol polyphosphate phosphatase 2),DRSC36769
,,,,inactive,Mipp2 (Multiple inositol polyphosphate phosphatase 2),DRSC36770
1.75e5,2.23e5,1.70e6,2.01e6,inactive,GNBP3 (Gram-negative bacteria binding protein 3),DRSC11170
9.05e5,1.14e6,2.63e6,2.15e6,inactive,TAF1C-like,DRSC04073
1.66e5,1.98e5,6.79e5,7.16e5,inactive,CG34253 + lncRNA:CR32194,DRSC09531
43329,40657,3.91e5,1.93e5,inactive,Ork1 (Open rectifier K[+] channel 1),DRSC20266
1.38e5,2.03e5,2.41e6,2.74e6,inactive,CG8927,DRSC16458
8.55e5,1.10e6,7.79e5,1.03e6,inactive,CG8927,DRSC25722
5.75e5,4.69e5,3.94e5,5.73e5,inactive,Pig1 (Pre-intermoult gene 1),DRSC24991
3.72e5,3.58e5,2.85e6,2.98e6,inactive,Gapvd1 (GTPase activating protein and VPS9 domains 1),DRSC19752
8.46e5,8.49e5,1.19e6,1.27e6,inactive,Gapvd1 (GTPase activating protein and VPS9 domains 1),DRSC24025
2.94e5,2.27e5,1.42e6,1.48e6,inactive,CAH13 (Carbonic anhydrase 13),DRSC06128
7.99e5,7.69e5,1.29e6,7.70e5,inactive,CAH13 (Carbonic anhydrase 13),DRSC24093
1.40e5,1.31e5,1.54e6,1.70e6,inactive,CG15258,DRSC02478
1.16e6,3.62e5,1.41e6,8.40e5,inactive,Faf2 (Fas-associated factor 2),DRSC03325
3.21e5,1.80e5,1.48e6,1.82e6,inactive,CG13239,DRSC11694
4.58e5,5.06e5,7.78e5,7.76e5,inactive,simj (simjang),DRSC10942
2.13e5,1.97e5,7.07e5,4.50e5,inactive,simj (simjang),DRSC25345
8.85e5,8.09e5,1.84e6,1.49e6,inactive,simj (simjang),DRSC38963
81937,71886,1.50e6,1.50e6,inactive,EDTP (Egg-derived tyrosine phosphatase),DRSC07409
,,,,inactive,EDTP (Egg-derived tyrosine phosphatase),DRSC36785
,,,,inactive,EDTP (Egg-derived tyrosine phosphatase),DRSC36786
1.59e5,1.37e5,4.26e5,5.89e5,inactive,Svip (small VCP interacting protein),DRSC08982
4.66e5,4.08e5,1.45e6,1.27e6,inactive,Svip (small VCP interacting protein),DRSC28597
1.65e5,1.47e5,1.04e6,1.28e6,inactive,salr (spalt-related),DRSC03607
1.14e5,1.04e5,1.20e6,1.27e6,inactive,CG6885,DRSC10740
1.30e5,1.49e5,1.62e6,1.72e6,inactive,Dph3 (Diphthamide biosynthesis 3),DRSC14923
9.27e5,1.20e6,7.44e5,9.51e5,inactive,Dph3 (Diphthamide biosynthesis 3),DRSC25545
2.24e5,1.50e5,1.54e6,1.30e6,inactive,babo (baboon),DRSC07581
,,,,inactive,babo (baboon),DRSC36676
,,,,inactive,babo (baboon),DRSC36677
8.19e5,1.02e6,2.36e6,2.30e6,inactive,rgr (regular),DRSC06487
9.45e5,1.12e6,1.02e6,1.04e6,inactive,rgr (regular),DRSC07229
98266,88156,1.15e6,6.77e5,inactive,MCTS1 (Malignant T cell amplified sequence 1),DRSC18393
3.10e5,4.67e5,1.99e6,2.00e6,inactive,CG30195,DRSC04155
3.23e5,2.47e5,3.22e6,2.06e6,inactive,TwdlH (TweedleH),DRSC14735
7.56e5,8.75e5,1.23e6,1.27e6,inactive,srp (serpent),DRSC23166
2.16e5,2.88e5,1.16e6,1.16e6,inactive,srp (serpent),DRSC29336
